In article PMC8128249:
Results are given in words; binding and its absence hold for the method and conditions named. In cells and extracts the contact can be indirect. Some binding calls cover weakened binding; strength is not graded here.

Molecular target: T1, TGF-beta activated kinase 1 (MAP3K7) binding protein 3 (human (231 is a human TNBC cell line; endogenous or transfected not stated for Figure 6G, H)) (UniProt Q8N5C8)
T1 sequence: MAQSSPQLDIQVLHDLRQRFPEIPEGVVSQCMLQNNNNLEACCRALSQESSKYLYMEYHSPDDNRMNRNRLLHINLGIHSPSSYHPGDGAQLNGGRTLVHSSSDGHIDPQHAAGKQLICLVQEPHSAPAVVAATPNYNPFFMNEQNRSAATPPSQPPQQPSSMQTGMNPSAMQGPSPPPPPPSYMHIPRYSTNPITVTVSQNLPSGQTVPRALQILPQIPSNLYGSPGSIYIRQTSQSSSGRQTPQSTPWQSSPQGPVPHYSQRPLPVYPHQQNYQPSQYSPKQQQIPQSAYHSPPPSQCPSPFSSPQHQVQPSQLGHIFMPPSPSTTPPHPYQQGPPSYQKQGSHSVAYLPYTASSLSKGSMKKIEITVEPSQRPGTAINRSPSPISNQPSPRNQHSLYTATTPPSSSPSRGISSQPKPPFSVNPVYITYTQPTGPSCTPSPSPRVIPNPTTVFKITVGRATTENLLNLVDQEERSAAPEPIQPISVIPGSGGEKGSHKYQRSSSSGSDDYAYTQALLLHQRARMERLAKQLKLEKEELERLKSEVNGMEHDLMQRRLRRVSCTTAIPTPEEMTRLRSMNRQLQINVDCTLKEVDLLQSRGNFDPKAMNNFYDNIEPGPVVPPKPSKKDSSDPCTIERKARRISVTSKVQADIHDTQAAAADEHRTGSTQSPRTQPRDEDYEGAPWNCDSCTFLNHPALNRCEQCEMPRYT
Test: co-IP; immunoprecipitation with TAB3 antibody, blot for endogenous TAB2; cells with or without Lnc-PCIR overexpression (association decreased on overexpression)

binding: binds
B1: TGF-beta activated kinase 1 (MAP3K7) binding protein 2 (protein, UniProt Q9NYJ8 1-693)
chain: MAQGSHQIDFQVLHDLRQKFPEVPEVVVSRCMLQNNNNLDACCAVLSQESTRYLYGEGDLNFSDDSGISGLRNHMTSLNLDLQSQNIYHHGREGSRMNGSRTLTHSISDGQLQGGQSNSELFQQEPQTAPAQVPQGFNVFGMSSSSGASNSAPHLGFHLGSKGTSSLSQQTPRFNPIMVTLAPNIQTGRNTPTSLHIHGVPPPVLNSPQGNSIYIRPYITTPGGTTRQTQQHSGWVSQFNPMNPQQVYQPSQPGPWTTCPASNPLSHTSSQQPNQQGHQTSHVYMPISSPTTSQPPTIHSSGSSQSSAHSQYNIQNISTGPRKNQIEIKLEPPQRNNSSKLRSSGPRTSSTSSSVNSQTLNRNQPTVYIAASPPNTDELMSRSQPKVYISANAATGDEQVMRNQPTLFISTNSGASAASRNMSGQVSMGPAFIHHHPPKSRAIGNNSATSPRVVVTQPNTKYTFKITVSPNKPPAVSPGVVSPTFELTNLLNHPDHYVETENIQHLTDPTLAHVDRISETRKLSMGSDDAAYTQALLVHQKARMERLQRELEIQKKKLDKLKSEVNEMENNLTRRRLKRSNSISQIPSLEEMQQLRSCNRQLQIDIDCLTKEIDLFQARGPHFNPSAIHNFYDNIGFVGPVPPKPKDQRSIIKTPKTQDTEDDEGAQWNCTACTFLNHPALIRCEQCEMPRHF
